PubChem BioAssay AID2685 (National Center for Advancing Translational Sciences (NCATS), 2010)
Some of the results follow. These are further read-outs of the screen, such as a control signal, another cell line or another target. No call is given for them. Compounds called inactive in the main read-out are mostly missing here. The note in brackets gives the kind of curve behind each potency; many fits are weak.

Assay: qHTS Assay for Lipid Storage Modulators in Drosophila S3 Cells;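 as to cell number change: cells counted by Cell Tracker Red CMTPX staining in the red channel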
Settings: BODIPY lipid droplet fluorescence, 18-24 h; for cell number change: measured here: cell count max response, cells fed with added oleic acid
Outline: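 Drosophila S3 cells got compounds at several concentrations plus oleic acid (400 uM solution). Laser-scanning cytometry with 488 nm excitation read lipid droplets at 500-530 nm and cells at 575-640 nm. Percent activity was relative to 20 uM Triacsin C.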

[1] = measured here: cell number channel AC50, cells fed with added oleic acid
[2] = measured here: lipid fluorescence (Fed channel) AC50, cells fed with added oleic acid

## COc1ccc(CC(=O)c2cc(OC)c(OC)cc2CC(=O)O)cc1OC
  cell number change: 50.9%
[1]
  AC50: 7.31 µM [falling, single point]
[2]
  AC50: 6.51 µM [falling, single point]

## Nc1nc(N)c(N=Nc2ccc(C(=O)O)cc2)c(N)n1
  cell number change: 5%
[2]
  AC50: 2.31 µM [rising, partial curve, poor fit]

## Cc1ccc2oc(Nc3nc(-c4ccccc4)cc(=O)[nH]3)nc2c1
  cell number change: -1.81%
[1]
  AC50: 0.461 µM [rising, single point]
[2]
  AC50: 18.4 µM [falling, partial curve]

## O=C(COC(=O)c1cccc(S(=O)(=O)N2CCOCC2)c1)c1ccccc1
  cell number change: -27.6%
[2]
  AC50: 29.1 µM [falling, single point]

## CCCCOC(=O)n1c(=O)oc2ccccc21
  cell number change: -24.5%
[2]
  AC50: 3.66 µM [falling, full curve]

## COc1cccc(/C=C/c2ccc3ccccc3n2)c1OC(C)=O
  cell number change: 7.22%
[2]
  AC50: 2.31 µM [rising, full curve, poor fit]

## COCCCn1c(O)c(/C=C2\N=C(C#N)C(=Nc3ccc(C)cc3)O2)sc1=S
[1]
  AC50: 3.26 µM [rising, partial curve]
[2]
  AC50: 5.17 µM [falling, full curve]

## Cc1cc(C)c(OCCOCCN(C)C)c(Br)c1
  cell number change: 3.39%
[2]
  AC50: 1.64 µM [rising, partial curve]

## O=C(CN1CCOCC1)Nc1ncc(Cc2cccc(Cl)c2)s1
  cell number change: -5.73%
[2]
  AC50: 16.4 µM [falling, single point]

## O=C(O)c1sccc1OCc1ccccc1
  cell number change: -43.2%
[1]
  AC50: 11.6 µM [falling, partial curve]

## CCCCc1nc2cc(C(=O)N3CCCC(COC)C3)ccc2o1 (stereo not given)
  cell number change: 31.7%
[1]
  AC50: 29.1 µM [rising, single point]

## Cc1ccc(NC(=O)c2ccccc2N2C(=O)C3C4C=CC(C5CC45)C3C2=O)cc1C (stereo not given)
  cell number change: -49.5%
[1]
  AC50: 7.08 µM [falling, full curve]
[2]
  AC50: 7.08 µM [falling, partial curve]

## CCOC(=O)[C@H]1[C@H]2COc3ccc(Br)cc3[C@@H]2N2C(=O)c3ccc(F)cc3NC(=O)[C@@]12C
[2]
  AC50: 6.51 µM [falling, single point]

## CCn1c(=O)n(CC)c2cc(N3CCCC3)c(NC(=O)c3cccc(OC)c3)cc21
  cell number change: 4.2%

## Cc1ccc(CNC(=O)CCn2cc(-c3ccc(F)cc3)nc2-c2ccncc2)cc1
  cell number change: -32.5%
[2]
  AC50: 25.9 µM [falling, partial curve, poor fit]

## Cc1cc(C[n+]2cc(Br)ccc2N)c2ncccc2c1
  cell number change: 7.2%
[2]
  AC50: 8.2 µM [rising, partial curve]

## CCOC(=O)Cn1c(=O)oc2cc(S(=O)(=O)Nc3ccc(N(CC)CC)cc3C)ccc21
  cell number change: 0.395%
[2]
  AC50: 0.731 µM [rising, single point]

## COC(=O)C1CCN(C(=O)CN(C)Cc2ccc(C(C)(C)C)cc2)CC1
  cell number change: 14.1%

## O=C(O)COc1ccc2c3c(c(=O)oc2c1)CCCC3
  cell number change: 4.14%
[2]
  AC50: 0.651 µM [falling, single point]

## Cc1nnc(SCc2nnc(-c3ccccc3Br)o2)n1-c1ccccc1
[1]
  AC50: 0.731 µM [rising, partial curve]
[2]
  AC50: 0.651 µM [rising, partial curve]

## O=C(N1CCC(n2nc(-c3ccccc3)oc2=O)CC1)C1(c2ccc(Cl)cc2)CC1
  cell number change: -16.8%
[2]
  AC50: 5.17 µM [falling, full curve]

## CCCn1c(C)cc(C(=O)COC(=O)c2c(C)nn(-c3ccccc3)c2C)c1C
  cell number change: 53.9%
[1]
  AC50: 8.2 µM [rising, partial curve]

## C=CCn1c(SCc2nc3ccccc3c(=O)[nH]2)nc2ccccc2c1=O
  cell number change: -12.3%
[1]
  AC50: 1.3 µM [rising, full curve, poor fit]

## O=C(NCc1cn2ccsc2n1)c1cccs1
  cell number change: -1.73%
[2]
  AC50: 1.16 µM [rising, full curve]

## CN(C)Cc1c(O)ccc2c(=O)c(-c3ccccc3Cl)c(C(F)(F)F)oc12
  cell number change: -16.5%
[2]
  AC50: 29.1 µM [rising, single point]

## COc1ccc(S(=O)(=O)N2CCCC(C(=O)N3CCCC3)C2)cc1OC (stereo not given)
  cell number change: 47.8%
[1]
  AC50: 13 µM [rising, partial curve, poor fit]

## CC(C)OP(=O)(OC(C)C)C(NC(=O)c1ccccc1)C(N)=O (stereo not given)
  cell number change: -16.1%
[2]
  AC50: 3.66 µM [falling, single point]

## CCCc1nn2c(=O)cc(CSCC(=O)Nc3nnc(CC)s3)nc2s1
  cell number change: 16.4%
[2]
  AC50: 29.1 µM [rising, single point]

## CCCCOC(=O)C1=C(C)NC(=O)NC1c1ccc(N(C)C)cc1 (stereo not given)
  cell number change: -13.2%
[2]
  AC50: 25.9 µM [rising, partial curve, poor fit]

## CCC(C)NC(=O)Nc1ccc2c(c1)N(C)C(=O)c1ccccc1S2 (stereo not given)
  cell number change: 5.19%
[1]
  AC50: 6.51 µM [falling, single point]

## Cc1cc(N2C(=O)C(O)=C(C(=O)c3cc4ccccc4o3)C2c2ccc(OC(C)C)cc2)no1 (stereo not given)
  cell number change: 7.46%
[2]
  AC50: 29.1 µM [rising, partial curve, poor fit]

## Cc1cccc(-n2c(O)c(C=Nc3ccc(O)cc3)c3ccccc3c2=O)n1
  cell number change: -45.7%
[1]
  AC50: 14.6 µM [falling, partial curve, poor fit]
[2]
  AC50: 16.4 µM [falling, partial curve, poor fit]

## COc1ccccc1C1CCN(Cc2ccc(Cl)cc2Cl)CC1
  cell number change: -54.6%
[1]
  AC50: 29.1 µM [falling, single point]
[2]
  AC50: 18.4 µM [falling, single point]

## COc1ccc(COc2cccc3ccc(C)nc23)cc1F
  cell number change: 11.3%

## CC1CCN(c2ncnc3c2cnn3Cc2ccc(Cl)cc2)CC1
  cell number change: 2.16%
[2]
  AC50: 14.6 µM [rising, single point]

## O=C(CN1CCN(S(=O)(=O)c2ccc(F)cc2)CC1)Nc1ccnn1C1CCCC1
  cell number change: -48.3%
[1]
  AC50: 9.2 µM [falling, partial curve]

## S=C(NCc1ccncc1)Nc1ccc(Br)cc1Cl
  cell number change: -15.9%
[2]
  AC50: 2.91 µM [rising, single point]
